Assay results: paper PMC8494857
No constants are given. Whether binding was seen depends on the method and setting. In cells and extracts the contact can be indirect. Here binding means that the protein was enriched with, or labelled near, the bait; the list need not be complete. Where a sequence is shown, tags or fusion partners need not be part of it.

The chains behind the UniProt entries cited, without tags or fusion partners.
UniProt Q03135: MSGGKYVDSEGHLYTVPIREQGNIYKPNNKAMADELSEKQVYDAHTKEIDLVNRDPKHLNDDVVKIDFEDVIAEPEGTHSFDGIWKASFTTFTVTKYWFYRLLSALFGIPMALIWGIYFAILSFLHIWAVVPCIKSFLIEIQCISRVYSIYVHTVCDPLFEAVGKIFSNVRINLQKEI
UniProt Q99961: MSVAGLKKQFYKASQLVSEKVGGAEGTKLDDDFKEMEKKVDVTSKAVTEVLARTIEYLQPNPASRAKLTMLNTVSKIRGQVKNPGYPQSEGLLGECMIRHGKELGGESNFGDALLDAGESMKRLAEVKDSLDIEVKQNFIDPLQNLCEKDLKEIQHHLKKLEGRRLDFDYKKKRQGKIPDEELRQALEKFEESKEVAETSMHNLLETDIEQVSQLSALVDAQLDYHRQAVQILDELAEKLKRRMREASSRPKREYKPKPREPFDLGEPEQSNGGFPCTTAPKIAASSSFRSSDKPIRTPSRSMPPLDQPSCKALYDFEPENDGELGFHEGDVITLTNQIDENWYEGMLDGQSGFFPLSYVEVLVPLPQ
UniProt P21333: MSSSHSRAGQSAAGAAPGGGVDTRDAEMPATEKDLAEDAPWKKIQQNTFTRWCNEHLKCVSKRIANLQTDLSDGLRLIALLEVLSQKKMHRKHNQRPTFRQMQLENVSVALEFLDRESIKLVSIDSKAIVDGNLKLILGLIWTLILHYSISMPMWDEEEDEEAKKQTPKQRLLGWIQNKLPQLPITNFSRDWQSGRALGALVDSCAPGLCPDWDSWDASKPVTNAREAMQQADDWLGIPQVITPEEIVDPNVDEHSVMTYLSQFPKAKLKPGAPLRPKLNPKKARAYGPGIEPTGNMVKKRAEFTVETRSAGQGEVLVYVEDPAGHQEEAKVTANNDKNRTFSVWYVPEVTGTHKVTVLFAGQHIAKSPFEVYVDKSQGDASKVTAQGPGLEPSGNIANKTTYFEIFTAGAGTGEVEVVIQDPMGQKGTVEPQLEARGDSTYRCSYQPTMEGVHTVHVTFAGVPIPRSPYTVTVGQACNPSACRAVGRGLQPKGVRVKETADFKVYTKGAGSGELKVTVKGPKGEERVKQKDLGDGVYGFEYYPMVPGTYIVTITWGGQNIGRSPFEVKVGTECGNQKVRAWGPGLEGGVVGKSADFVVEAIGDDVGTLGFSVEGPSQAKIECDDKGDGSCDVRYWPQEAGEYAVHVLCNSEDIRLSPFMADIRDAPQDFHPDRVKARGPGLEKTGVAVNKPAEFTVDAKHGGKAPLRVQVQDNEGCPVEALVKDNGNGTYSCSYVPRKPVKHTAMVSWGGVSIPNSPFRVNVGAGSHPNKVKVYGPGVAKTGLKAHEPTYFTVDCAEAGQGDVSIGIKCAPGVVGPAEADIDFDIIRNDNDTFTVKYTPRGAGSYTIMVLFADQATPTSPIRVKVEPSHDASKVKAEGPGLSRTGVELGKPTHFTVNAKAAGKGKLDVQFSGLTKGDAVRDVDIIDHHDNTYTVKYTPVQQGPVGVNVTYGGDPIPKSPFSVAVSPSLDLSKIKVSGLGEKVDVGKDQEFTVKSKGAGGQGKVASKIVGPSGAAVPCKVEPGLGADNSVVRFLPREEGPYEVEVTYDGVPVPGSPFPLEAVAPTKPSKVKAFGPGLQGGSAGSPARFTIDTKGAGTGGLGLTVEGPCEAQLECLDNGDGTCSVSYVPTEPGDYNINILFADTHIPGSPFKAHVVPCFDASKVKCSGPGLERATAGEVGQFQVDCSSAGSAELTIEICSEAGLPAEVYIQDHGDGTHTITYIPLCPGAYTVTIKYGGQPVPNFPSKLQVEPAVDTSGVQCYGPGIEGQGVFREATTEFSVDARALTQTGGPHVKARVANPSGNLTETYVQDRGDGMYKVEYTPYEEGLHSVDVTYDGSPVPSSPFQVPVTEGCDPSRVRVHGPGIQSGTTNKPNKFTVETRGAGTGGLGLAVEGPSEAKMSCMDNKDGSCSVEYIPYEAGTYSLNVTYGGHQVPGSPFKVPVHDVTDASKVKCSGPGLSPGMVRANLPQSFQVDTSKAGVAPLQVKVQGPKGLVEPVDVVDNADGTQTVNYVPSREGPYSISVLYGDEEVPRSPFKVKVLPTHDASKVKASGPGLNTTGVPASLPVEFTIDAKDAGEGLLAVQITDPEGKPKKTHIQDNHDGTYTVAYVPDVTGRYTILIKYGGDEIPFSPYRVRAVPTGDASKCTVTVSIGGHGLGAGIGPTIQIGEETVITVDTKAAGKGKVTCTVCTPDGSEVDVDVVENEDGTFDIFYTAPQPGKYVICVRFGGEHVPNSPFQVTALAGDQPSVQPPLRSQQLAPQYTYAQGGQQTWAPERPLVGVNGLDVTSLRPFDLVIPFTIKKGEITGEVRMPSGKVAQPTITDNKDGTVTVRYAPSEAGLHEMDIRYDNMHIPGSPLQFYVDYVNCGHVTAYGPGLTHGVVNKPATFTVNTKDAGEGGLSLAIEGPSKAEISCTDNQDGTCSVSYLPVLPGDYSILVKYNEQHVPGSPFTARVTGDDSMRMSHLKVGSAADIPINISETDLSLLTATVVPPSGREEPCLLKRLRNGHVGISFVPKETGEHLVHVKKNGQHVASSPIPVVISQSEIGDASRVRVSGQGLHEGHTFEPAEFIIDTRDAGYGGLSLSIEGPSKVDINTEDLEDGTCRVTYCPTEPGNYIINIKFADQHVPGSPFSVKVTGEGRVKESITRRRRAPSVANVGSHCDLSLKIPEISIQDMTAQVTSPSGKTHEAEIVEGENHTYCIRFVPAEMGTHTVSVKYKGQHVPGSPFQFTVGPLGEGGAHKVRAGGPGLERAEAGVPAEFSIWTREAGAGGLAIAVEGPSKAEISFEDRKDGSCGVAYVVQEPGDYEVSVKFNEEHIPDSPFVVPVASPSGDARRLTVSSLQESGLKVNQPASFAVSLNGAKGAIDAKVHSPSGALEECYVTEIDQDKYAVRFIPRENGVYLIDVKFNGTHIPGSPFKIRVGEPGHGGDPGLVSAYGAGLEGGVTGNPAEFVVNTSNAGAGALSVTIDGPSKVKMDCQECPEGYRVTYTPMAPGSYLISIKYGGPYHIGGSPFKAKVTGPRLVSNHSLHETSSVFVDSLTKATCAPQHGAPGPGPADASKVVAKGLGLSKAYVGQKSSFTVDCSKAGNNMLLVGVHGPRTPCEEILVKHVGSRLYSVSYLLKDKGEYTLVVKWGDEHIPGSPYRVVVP
UniProt Q9Y490: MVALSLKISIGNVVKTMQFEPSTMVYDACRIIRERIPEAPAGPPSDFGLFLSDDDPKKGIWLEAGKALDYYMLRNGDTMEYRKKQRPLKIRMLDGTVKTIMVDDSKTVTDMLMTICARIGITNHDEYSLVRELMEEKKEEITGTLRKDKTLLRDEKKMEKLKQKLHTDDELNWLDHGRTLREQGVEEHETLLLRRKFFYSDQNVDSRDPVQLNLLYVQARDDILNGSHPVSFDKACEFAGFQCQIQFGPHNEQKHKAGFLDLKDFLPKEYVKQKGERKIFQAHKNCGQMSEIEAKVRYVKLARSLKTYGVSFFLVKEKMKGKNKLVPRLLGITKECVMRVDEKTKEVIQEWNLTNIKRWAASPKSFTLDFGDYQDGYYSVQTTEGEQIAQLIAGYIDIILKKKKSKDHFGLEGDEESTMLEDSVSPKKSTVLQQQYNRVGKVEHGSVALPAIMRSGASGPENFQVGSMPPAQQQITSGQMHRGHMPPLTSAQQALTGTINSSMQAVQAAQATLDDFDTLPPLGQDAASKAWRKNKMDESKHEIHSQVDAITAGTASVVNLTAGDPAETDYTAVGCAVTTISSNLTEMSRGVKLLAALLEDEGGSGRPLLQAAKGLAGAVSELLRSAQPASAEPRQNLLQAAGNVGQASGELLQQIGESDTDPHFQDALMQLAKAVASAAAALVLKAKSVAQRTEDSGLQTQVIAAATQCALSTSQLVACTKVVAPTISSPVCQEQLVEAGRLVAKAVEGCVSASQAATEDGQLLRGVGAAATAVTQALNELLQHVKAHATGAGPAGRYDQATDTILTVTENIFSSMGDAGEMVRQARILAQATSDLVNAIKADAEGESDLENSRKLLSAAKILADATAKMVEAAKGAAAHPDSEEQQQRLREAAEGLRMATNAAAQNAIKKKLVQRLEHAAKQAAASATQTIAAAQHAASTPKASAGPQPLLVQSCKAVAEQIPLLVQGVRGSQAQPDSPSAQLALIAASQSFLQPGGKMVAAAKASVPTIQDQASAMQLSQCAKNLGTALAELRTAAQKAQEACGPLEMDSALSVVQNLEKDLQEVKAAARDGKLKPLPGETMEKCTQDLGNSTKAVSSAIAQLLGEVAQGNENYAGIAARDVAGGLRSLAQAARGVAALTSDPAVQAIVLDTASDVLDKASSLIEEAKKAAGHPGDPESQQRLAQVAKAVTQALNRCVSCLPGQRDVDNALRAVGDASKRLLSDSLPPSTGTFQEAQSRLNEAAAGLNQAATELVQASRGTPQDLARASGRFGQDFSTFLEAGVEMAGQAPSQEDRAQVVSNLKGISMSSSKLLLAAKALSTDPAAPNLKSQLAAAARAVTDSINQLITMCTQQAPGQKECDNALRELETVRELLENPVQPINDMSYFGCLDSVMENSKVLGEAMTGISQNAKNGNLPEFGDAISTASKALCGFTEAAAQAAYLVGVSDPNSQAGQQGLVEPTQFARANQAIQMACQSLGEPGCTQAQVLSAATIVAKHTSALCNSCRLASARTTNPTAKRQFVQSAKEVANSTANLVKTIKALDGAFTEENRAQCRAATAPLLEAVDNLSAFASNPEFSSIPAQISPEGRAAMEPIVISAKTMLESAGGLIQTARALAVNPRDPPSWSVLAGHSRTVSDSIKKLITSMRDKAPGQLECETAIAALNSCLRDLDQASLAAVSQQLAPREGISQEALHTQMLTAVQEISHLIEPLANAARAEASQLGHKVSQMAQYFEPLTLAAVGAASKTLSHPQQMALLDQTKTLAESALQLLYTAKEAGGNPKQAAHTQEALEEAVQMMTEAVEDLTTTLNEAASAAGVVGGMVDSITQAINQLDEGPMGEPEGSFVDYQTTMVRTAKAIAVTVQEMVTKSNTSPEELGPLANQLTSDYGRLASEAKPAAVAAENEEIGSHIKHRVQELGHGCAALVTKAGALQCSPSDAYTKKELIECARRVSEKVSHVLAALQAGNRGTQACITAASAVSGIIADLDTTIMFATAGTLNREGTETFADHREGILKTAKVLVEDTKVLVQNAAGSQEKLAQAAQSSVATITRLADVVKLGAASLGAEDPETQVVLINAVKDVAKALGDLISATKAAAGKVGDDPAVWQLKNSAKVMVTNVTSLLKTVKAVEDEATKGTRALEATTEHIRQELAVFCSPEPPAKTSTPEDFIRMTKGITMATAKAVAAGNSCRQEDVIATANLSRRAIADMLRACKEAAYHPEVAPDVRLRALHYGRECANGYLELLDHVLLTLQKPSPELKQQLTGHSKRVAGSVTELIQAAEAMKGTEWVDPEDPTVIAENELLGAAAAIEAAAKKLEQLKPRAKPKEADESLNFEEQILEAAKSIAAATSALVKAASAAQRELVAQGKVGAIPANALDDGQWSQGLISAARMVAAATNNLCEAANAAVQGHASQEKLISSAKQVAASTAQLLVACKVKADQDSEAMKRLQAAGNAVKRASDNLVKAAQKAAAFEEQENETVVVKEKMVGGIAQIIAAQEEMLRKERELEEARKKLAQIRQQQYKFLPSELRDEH
UniProt O43617: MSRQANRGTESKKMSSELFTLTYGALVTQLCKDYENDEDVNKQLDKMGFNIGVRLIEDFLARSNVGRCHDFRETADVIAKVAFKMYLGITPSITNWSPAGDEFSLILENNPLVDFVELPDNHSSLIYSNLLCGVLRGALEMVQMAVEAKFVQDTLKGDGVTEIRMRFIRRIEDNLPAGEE
UniProt P26038: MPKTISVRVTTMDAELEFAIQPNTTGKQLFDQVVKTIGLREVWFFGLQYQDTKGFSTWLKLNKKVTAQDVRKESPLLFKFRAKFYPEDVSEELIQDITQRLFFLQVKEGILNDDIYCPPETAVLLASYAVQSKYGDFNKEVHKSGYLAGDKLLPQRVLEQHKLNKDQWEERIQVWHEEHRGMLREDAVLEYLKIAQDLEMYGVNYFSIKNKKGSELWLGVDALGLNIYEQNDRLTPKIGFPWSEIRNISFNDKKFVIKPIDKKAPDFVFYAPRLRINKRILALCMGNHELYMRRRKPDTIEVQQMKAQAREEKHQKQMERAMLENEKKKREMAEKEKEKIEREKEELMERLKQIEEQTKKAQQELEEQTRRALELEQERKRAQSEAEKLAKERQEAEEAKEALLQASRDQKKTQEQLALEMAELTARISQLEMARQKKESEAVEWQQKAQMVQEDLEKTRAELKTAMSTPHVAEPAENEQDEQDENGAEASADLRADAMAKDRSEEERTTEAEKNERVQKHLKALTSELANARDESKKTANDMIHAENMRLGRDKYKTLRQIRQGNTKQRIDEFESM

Molecular target: PEA-15 (Phosphoprotein Enriched in Astrocytes of 15 kDa) (human (endogenous in U87MG)) (UniProt Q15121)
Experiment: affinity purification with mass spectrometry; endogenous PEA-15 precipitated with anti-PEA15 antibodies from whole cell lysates of U87MG (serum starved, then EGF or vehicle); SDS-PAGE, in-gel trypsin digest, LC-MS/MS; IgG alone as control

Molecule	binding
AP-2 complex subunit alpha-1 (from UniProt O95782 1-977)	binds
AP-2 complex subunit beta (from UniProt P63010 1-937)	binds
Alpha-taxilin (from UniProt P40222 1-546)	binds
Caveolin-1 (from UniProt Q03135 1-178)	binds
Endophilin-A2 (from UniProt Q99961 1-368)	binds
Filamin-A (from UniProt P21333 1-2647)	binds
Filamin-B (from UniProt O75369 1-2602)	binds
Filamin-C (from UniProt Q14315 1-2725)	binds
Heat Shock 70 kDa Protein 8 (from UniProt P11142 1-646)	binds
Integrin beta-1 (from UniProt P05556 21-798) (receptor)	binds
Programmed cell death 6 -interacting protein (from UniProt Q8WUM4 1-868)	binds
Sorting nexin-9 (from UniProt Q9Y5X1 1-595)	binds
Talin-1 (from UniProt Q9Y490 1-2541)	binds
Talin-2 (from UniProt Q9Y4G6 1-2542)	binds
Trafficking protein particle complex subunit 3 (from UniProt O43617 1-180)	binds
Transport and Golgi organization protein 1 homolog (from UniProt Q5JRA6 23-1907)	binds
General vesicular transport factor p115 (protein, UniProt O60763 1-962) MNFLRGVMGGQSAGPQHTEAETIQKLCDRVASSTLLDDRRNAVRALKSLSKKYRLEVGIQAMEHLIHVLQTDRSDSEIIGYALDTLYNIISNEEEEEVEENSTRQSEDLGSQFTEIFIKQQENVTLLLSLLEEFDFHVRWPGVKLLTSLLKQLGPQVQQIILVSPMGVSRLMDLLADSREVIRNDGVLLLQALTRSNGAIQKIVAFENAFERLLDIISEEGNSDGGIVVEDCLILLQNLLKNNNSNQNFFKEGSYIQRMKPWFEVGDENSGWSAQKVTNLHLMLQLVRVLVSPTNPPGATSSCQKAMFQCGLLQQLCTILMATGVPADILTETINTVSEVIRGCQVNQDYFASVNAPSNPPRPAIVVLLMSMVNERQPFVLRCAVLYCFQCFLYKNQKGQGEIVSTLLPSTIDATGNSVSAGQLLCGGLFSTDSLSNWCAAVALAHALQENATQKEQLLRVQLATSIGNPPVSLLQQCTNILSQGSKIQTRVGLLMLLCTWLSNCPIAVTHFLHNSANVPFLTGQIAENLGEEEQLVQGLCALLLGISIYFNDNSLESYMKEKLKQLIEKRIGKENFIEKLGFISKHELYSRASQKPQPNFPSPEYMIFDHEFTKLVKELEGVITKAIYKSSEEDKKEEEVKKTLEQHDNIVTHYKNMIREQDLQLEELRQQVSTLKCQNEQLQTAVTQQVSQIQQHKDQYNLLKIQLGKDNQHQGSYSEGAQMNGIQPEEIGRLREEIEELKRNQELLQSQLTEKDSMIENMKSSQTSGTNEQSSAIVSARDSEQVAELKQELATLKSQLNSQSVEITKLQTEKQELLQKTEAFAKSVEVQGETETIIATKTTDVEGRLSALLQETKELKNEIKALSEERTAIKEQLDSSNSTIAILQTEKDKLELEITDSKKEQDDLLVLLADQDQKILSLKNKLKDLGHPVEEEDELESGDQEDEDDESEDPGKDLDHI	binds
Alpha-soluble NSF attachment protein (protein, UniProt P54920 1-295) MDNSGKEAEAMALLAEAERKVKNSQSFFSGLFGGSSKIEEACEIYARAANMFKMAKNWSAAGNAFCQAAQLHLQLQSKHDAATCFVDAGNAFKKADPQEAINCLMRAIEIYTDMGRFTIAAKHHISIAEIYETELVDIEKAIAHYEQSADYYKGEESNSSANKCLLKVAGYAALLEQYQKAIDIYEQVGTNAMDSPLLKYSAKDYFFKAALCHFCIDMLNAKLAVQKYEELFPAFSDSRECKLMKKLLEAHEEQNVDSYTESVKEYDSISRLDQWLTTMLLRIKKTIQGDEEDLR	binds
Charged multivesicular body protein 4b (protein, UniProt Q9H444 1-224) MSVFGKLFGAGGGKAGKGGPTPQEAIQRLRDTEEMLSKKQEFLEKKIEQELTAAKKHGTKNKRAALQALKRKKRYEKQLAQIDGTLSTIEFQREALENANTNTEVLKNMGYAAKAMKAAHDNMDIDKVDELMQDIADQQELAEEISTAISKPVGFGEEFDEDELMAELEELEQEELDKNLLEISGPETVPLPNVPSIALPSKPAKKKEEEDDDMKELENWAGSM	binds

The next lines start with the values.

binding	Molecule
binds	Clathrin heavy chain 1 (from UniProt Q00610 1-1675)
binds	Cortactin (from UniProt Q14247 1-550)
binds	Dynactin subunit 1 (from UniProt Q14203 1-1278)
binds	ELKS/Rab6-interacting/CAST family member 1 (from UniProt Q8IUD2 1-1116)
binds	Early endosome antigen 1 (from UniProt Q15075 1-1411)
binds	Moesin (from UniProt P26038 1-577)
binds	Amphiphysin II (Myc box-dependent-interacting protein 1) (protein, UniProt O00499 1-593) MAEMGSKGVTAGKIASNVQKKLTRAQEKVLQKLGKADETKDEQFEQCVQNFNKQLTEGTRLQKDLRTYLASVKAMHEASKKLNECLQEVYEPDWPGRDEANKIAENNDLLWMDYHQKLVDQALLTMDTYLGQFPDIKSRIAKRGRKLVDYDSARHHYESLQTAKKKDEAKIAKPVSLLEKAAPQWCQGKLQAHLVAQTNLLRNQAEEELIKAQKVFEEMNVDLQEELPSLWNSRVGFYVNTFQSIAGLEENFHKEMSKLNQNLNDVLVGLEKQHGSNTFTVKAQPSDNAPAKGNKSPSPPDGSPAATPEIRVNHEPEPAGGATPGATLPKSPSQLRKGPPVPPPPKHTPSKEVKQEQILSLFEDTFVPEISVTTPSQFEAPGPFSEQASLLDLDFDPLPPVTSPVKAPTPSGQSIPWDLWEPTESPAGSLPSGEPSAAEGTFAVSWPSQTAEPGPAQPAEASEVAGGTQPAAGAQEPGETAASEAASSSLPAVVVETFPATVNGTVEGGSGAGRLDLPPGFMFKVQAQHDYTATDTDELQLKAGDVVLVIPFQNPEEQDEGWLMGVKESDWNQHKELEKCRGVFPENFTERVP
binds	Clathrin light chain A (protein, UniProt P09496 1-248) MAELDPFGAPAGAPGGPALGNGVAGAGEEDPAAAFLAQQESEIAGIENDEAFAILDGGAPGPQPHGEPPGGPDAVDGVMNGEYYQESNGPTDSYAAISQVDRLQSEPESIRKWREEQMERLEALDANSRKQEAEWKEKAIKELEEWYARQDEQLQKTKANNRVADEAFYKQPFADVIGYVTNINHPCYSLEQAAEEAFVNDIDESSPGTEWERVARLCDFNPKSSKQAKDVSRMRSVLISLKQAPLVH
